PubChem BioAssay AID2071 (Sanford-Burnham Center for Chemical Genomics, 2009)
Some of the results follow.

Assay: NALP1 inflammasome inhibitors in reconstituted yeast, colorimetric, S. cerevisiae, triplicate retest (AID 2071)
Settings: S. cerevisiae NALP1/ASC/caspase-1 growth, X-gal OD620, 72 h, at 20 µM, stronger effect = higher value

| SMILES | inhibition |
| --- | --- |
| CCN1CCC(Nc2cccc(F)c2)CC1 | 4.3% |
